PubChem BioAssay AID1259308 | NCATS – 2017

Assay: 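Candidate targets for better recombinant protein yield in mammalian cells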 (primary screen)
Cell system: human HEK293 embryonic kidney cells stably expressing firefly luciferase (HEK-CMV-Luc2-Hygro)
Reagents: single siRNA against human genes, 0.8 pmol siRNA per well
Duration: 72 h
Read-out: 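Luciferase light (ONE-Glo) measured on one replicate plate set and viability (CellTiter-Glo) on the other, scaled to a negative control siRNA, with robust z-scores and luciferase per cell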
Reading the numbers: total luciferase, z-score: higher = more reporter protein produced
Rule for the call: 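An siRNA counts as active if its total luciferase robust z-score exceeds 3; genes with two or more such siRNAs out of three were retested with fresh siRNAs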
Meaning of the calls: active = raised luciferase; inactive = no rise
The deposit covers about 59,000 reagents; this is an unselected part. Over the whole deposit, about 1,510 (2.6%) are marked active. 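Calls use total luciferase alone and ignore viability, so some active siRNAs may act by altering cell number.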 The numbers tell different reagents against one gene apart. Not all columns of the deposit are shown.

gene | reagent | total luciferase, z-score | call
DNHD1 | 1 | -0.466 | inactive
DNHD1 | 2 | -0.489 | inactive
DNHD1 | 3 | 1.13 | inactive
DNHD1 | 4 | -0.833 | inactive
DNHD1 | 5 | 0.812 | inactive
DNHD1 | 6 | 0.199 | inactive
DNHD1 | 7 | -0.917 | inactive
DNHD1 | 8 | -0.778 | inactive
DNHD1 | 9 | -1.81 | inactive
REXO5 | 1 | 3.35 | active
REXO5 | 2 | -0.215 | inactive
REXO5 | 3 | 0.131 | inactive
NKX2-3 | 1 | -0.29 | inactive
NKX2-3 | 2 | -0.391 | inactive
NKX2-3 | 3 | -0.136 | inactive
GABRG1 | 1 | 0.105 | inactive
GABRG1 | 2 | 0.0688 | inactive
GABRG1 | 3 | -0.343 | inactive
ZNF263 | 1 | -1.04 | inactive
ZNF263 | 2 | -1.34 | inactive
ZNF263 | 3 | 1.6 | inactive
SLC61A1 | 1 | 1.08 | inactive
SLC61A1 | 2 | -0.14 | inactive
SLC61A1 | 3 | -1.63 | inactive

Not a retest: 3 of the entries above.
gene | reagent | total luciferase, z-score | call
DNHD1 | 3 | 1.13 | inactive
DNHD1 | 4 | -0.833 | inactive
DNHD1 | 5 | 0.812 | inactive
